No constants are given. Whether binding was seen depends on the method and setting. Binding seen in cells or lysates may run through a third protein. These calls come from enrichment with a bait or labelling near it, and not all partners need be listed. One block for each binder: values may come before it.
Biological target: CK2α, endogenous in mouse tissues (mouse (endogenous in C57BL/6J gastrocnemius muscle, epididymal fat, liver)) (UniProt Q60737)
Assay: affinity purification with mass spectrometry; CK2α immunoprecipitation (rabbit IgG as control) from gastrocnemius muscle and epididymal fat of mice 30 min after MOTS-c or sterilized water; LC-MS/MS, n = 3 per condition

Chains of the proteins cited; added tags and fusions are not shown.
UniProt Q60737: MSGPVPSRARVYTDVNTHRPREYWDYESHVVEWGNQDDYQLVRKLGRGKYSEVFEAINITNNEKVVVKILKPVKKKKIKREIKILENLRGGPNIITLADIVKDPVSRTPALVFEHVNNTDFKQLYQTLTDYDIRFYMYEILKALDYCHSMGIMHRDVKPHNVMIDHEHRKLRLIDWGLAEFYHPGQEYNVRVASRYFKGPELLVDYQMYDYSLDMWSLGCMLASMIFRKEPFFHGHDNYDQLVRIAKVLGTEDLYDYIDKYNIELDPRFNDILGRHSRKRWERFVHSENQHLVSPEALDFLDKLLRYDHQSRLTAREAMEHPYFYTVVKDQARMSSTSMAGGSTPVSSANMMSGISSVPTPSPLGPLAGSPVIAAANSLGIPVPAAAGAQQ

- binding: binds
B1: synaptojanin 2 (SYNJ2) (protein, UniProt Q9D2G5 1-1434)
chain: MALSKGLRLLARLDPTGPSSVLLEARGRGDCLLFEAGAVATLAPEEKEVIKGLYSKLTDAYGCLGELRLQSGGVPLSFLVLVTGCMSVGRIPDAEIYKITATELYPLQEEAKEEDRLPTLKKILSSGVFYFAWPNDGACFDLTIRAQKQGDDGSEWGTSFFWNQLLHVPLRQHQVNCHNWLLKVICGVVTIRTVYASHKQAKACLISRISCERAGARFLTRGVNDDGHVSNFVETEQTIYMDDGVSSFVQIRGSVPLFWEQPGLQVGSHHLRLHRGLEANAPAFERHMVLLKEQYGKQVVVNLLGSRGGEEVLNRAFKKLLWASCHAGDTPMINFDFHQFAKGRKLEKLENLLRPQLQLHWEDFGVFAKGENVSPRFQKGTLRMNCLDCLDRTNTVQCFIALEVLHLQLESLGLNSKPIIDRFVESFKAMWSLNGHSLSKVFTGSRALEGKAKVGKLKDGARSMSRTIQSNFFDGVKQEAIKLLLVGDVYNEESTDKGRMLLDNTALLATPRILKAMTERQSEFTNFKRIQIAVGTWNVNGGKQFRSNLLGTAELTDWLLDAPQLSGAVDSQDDGSPADVFAIGFEEMVELSAGNIVNASTTNRKMWGEQLQKAISRSHRYILLTSAQLVGVCLYIFVRPYHVPFIRDVAIDTVKTGMGGKAGNKGAVGIRFQLHSTSFCFVCSHLTAGQSQVKERNEDYREITHKLSFPSGRNIFSHDYVFWCGDFNYRIDLTYEEVFYFVKRQDWKKLMEFDQLQLQKSSGKIFKDFHEGAVNFGPTYKYDVGSAAYDTSDKCRTPAWTDRVLWWRKKHPYDKTAGELNLLDSDLDGDPQIRHTWSPGTLKYYGRAELQASDHRPVLAIVEVEVQEVDVGARERVFQEVSSVQGPLDATVVVNLQSPTLEEKNEFPEDLRTELMQTLGNYGTIILVRINQGQMLVTFADSHSALSVLDVDGMKVKGRAVKIRPKTKDWLEGLREELLRKRDSMAPVSPTANSCLLEENFDFSSLDYESEGDVLEEDEDYLVDGFGQPVVSDSELGGDNSSDTMSSLTPASKSPALAKKKQHPTYKAGLMVKKSASDASISSGTHGQYSILQTAKLLPGAPQQPPKARTGISKPYNVKQIKTTNAQEAEAAIRCLLEASGGVPESAPGAIPLRNQGSSKPEATLGPPALPRRPAPRVPTMKKPTLRRTGKPMLPEENFEPQPVHFTMASQEMNLETPPPITATPIPPVPKPRTLQPGKGVEGRPSSGKPEPDEAPSVTGTVESPPPEAQEAPSLAPKVPPRRKKSAPAAFHLQVLQNNSQVLQGLTCSSSSPPSLKPDTHPLCLQVALGTSSARSPETHGPRVTEPEAASFHGNYPDPFWSLLHHPKLLNNTWLSKSSEPLDVGSRNPERTHTEPAQVNASLAERGLPPDHGGKDLSHWVTASNKDKRTTLGV

- binding: binds
B2: nuclear casein kinase and cyclin-dependent kinase substrate 1 (NUCKS1) (protein, UniProt Q80XU3 1-234)
chain: MSRPVRNRKVVDYSQFQESDDADEDYGRDSGPPAKKIRSSPREAKNKRRSGKNSQEDSEDSEEKDVKTKKDDSHSAEDSEDEKDDHKNVRQQRQAASKAASKQREMLLEDVGSEEEPEEDDEAPFQEKDSGSDEDFLMEDDDDSDYGSSKKKNKKMVKKSKPERKEKKMPKPRLKATVTPSPVKGKAKVGRPTASKKSKEKTPSPKEEDEEAESPPEKKSGDEGSEDEASSGED

- binding: binds
B3: ubiquinol-cytochrome c reductase core protein 1 (UQCRC1) (protein, UniProt Q9CZ13 35-480)
chain: TATFAQALQSVPETQVSILDNGLRVASEQSSHATCTVGVWIDAGSRYETEKNNGAGYFLEHLAFKGTKNRPGNALEKEVESIGAHLNAYSTREHTAYLIKALSKDLPKVVELLADIVQNSSLEDSQIEKERDVILREMQENDASMQNVVFDYLHATAFQGTPLAQAVEGPSENVRRLSRTDLTDYLNRHYKAPRMVLAAAGGVEHQQLLDLAQKHLSSVSRVYEEDAVPGLTPCRFTGSEIRHRDDALPLAHVAIAVEGPGWANPDNVTLQVANAIIGHYDCTYGGGVHLSSPLASVAVANKLCQSFQTFNISYSDTGLLGAHFVCDAMSIDDMVFFLQGQWMRLCTSATESEVTRGKNILRNALVSHLDGTTPVCEDIGRSLLTYGRRIPLAEWESRIQEVDAQMLRDICSKYFYDQCPAVAGYGPIEQLPDYNRIRSGMFWLRF
